The full ranking holds about 1,900 compounds; the median of “excess over highest single agent (ExcessHSA) synergy score, 6x6 matrix” is about -83, and the lowest 2% start at about -370. Some of the results follow.

For this assay, the system named is NCI-H446. The assay is described as follows: excess over highest single agent (ExcessHSA) synergy score, 6x6 matrix; higher = less synergy (more negative = stronger synergy). The settings on record: 72 h; CellTiter-Glo viability.
As for `COc1ccc(-c2nc3cc(C4=NNC(=O)CC4C)ccc3[nH]2)cc1` (stereo not drawn) + Cc1sc2c(c1C)C(c1ccc(Cl)cc1)=N[C@@H](CC(=O)OC(C)(C)C)c1nnc(C)n1-2 [NCGC00250412-19], the “excess over highest single agent” value is -77.7.

Turning to `COc1ccc(Cc2ccc(NC(N)=O)cc2)cc1-c1cccc(Cl)c1` + Cc1sc2c(c1C)C(c1ccc(Cl)cc1)=N[C@@H](CC(=O)OC(C)(C)C)c1nnc(C)n1-2 [NCGC00250412-19], the “excess over highest single agent” value was -139.

Turning to `CN[C@H](CC(C)C)C(=O)N[C@H]1C(=O)N[C@@H](CC(N)=O)C(=O)N[C@H]2C(=O)N[C@H]3C(=O)N[C@H](C(=O)N[C@H](C(=O)O)c4cc(O)cc(O)c4-c4cc3ccc4O)[C@H](O)c3ccc(c(Cl)c3)Oc3cc2cc(c3O[C@@H]2O[C@H](CO)[C@@H](O)[C@H](O)[C@H]2O[C@H]2C[C@](C)(N)[C@H](O)[C@H](C)O2)Oc2ccc(cc2Cl)[C@H]1O` + Cc1sc2c(c1C)C(c1ccc(Cl)cc1)=N[C@@H](CC(=O)OC(C)(C)C)c1nnc(C)n1-2 [NCGC00250412-19], the “excess over highest single agent” value was -248.

Turning to `O=c1c(O)c(-c2ccc(O)c(O)c2)oc2cc(O)ccc12` + Cc1sc2c(c1C)C(c1ccc(Cl)cc1)=N[C@@H](CC(=O)OC(C)(C)C)c1nnc(C)n1-2 [NCGC00250412-19], the “excess over highest single agent” value was -211.

`CNS(=O)(=O)Cc1ccc2[nH]cc(CCN(C)C)c2c1` + Cc1sc2c(c1C)C(c1ccc(Cl)cc1)=N[C@@H](CC(=O)OC(C)(C)C)c1nnc(C)n1-2 [NCGC00250412-19]: the “excess over highest single agent” value was -83.9.

Turning to `NS(=O)(=O)c1cc2c(cc1Cl)N=CNS2(=O)=O` + Cc1sc2c(c1C)C(c1ccc(Cl)cc1)=N[C@@H](CC(=O)OC(C)(C)C)c1nnc(C)n1-2 [NCGC00250412-19], the “excess over highest single agent” value is -55.8.

With `CCOC(=O)[C@H](CCc1ccccc1)N[C@@H](C)C(=O)N1[C@H](C(=O)O)C[C@@H]2CCC[C@@H]21` + Cc1sc2c(c1C)C(c1ccc(Cl)cc1)=N[C@@H](CC(=O)OC(C)(C)C)c1nnc(C)n1-2 [NCGC00250412-19], the “excess over highest single agent” value is -6.15.

For `O=C(NCc1ccncc1)C12CC3CC(C1)CC(c1ccc(Cl)cc1)(C3)C2` + Cc1sc2c(c1C)C(c1ccc(Cl)cc1)=N[C@@H](CC(=O)OC(C)(C)C)c1nnc(C)n1-2 [NCGC00250412-19], the “excess over highest single agent” value was 51.6.

`NC(=O)c1ncn([C@@H]2O[C@H](CO)[C@@H](O)[C@H]2O)n1` + Cc1sc2c(c1C)C(c1ccc(Cl)cc1)=N[C@@H](CC(=O)OC(C)(C)C)c1nnc(C)n1-2 [NCGC00250412-19]: the “excess over highest single agent” value is -4.18.

On to `CC(C)NC1CCn2c(=O)[nH]c3cccc(c32)C1O` (stereo not drawn) + Cc1sc2c(c1C)C(c1ccc(Cl)cc1)=N[C@@H](CC(=O)OC(C)(C)C)c1nnc(C)n1-2 [NCGC00250412-19], for which the “excess over highest single agent” value was -112.

`CNC(=O)c1ccc(-c2cnc3ncc(Cc4ccc5ncccc5c4)n3n2)cc1F` + Cc1sc2c(c1C)C(c1ccc(Cl)cc1)=N[C@@H](CC(=O)OC(C)(C)C)c1nnc(C)n1-2 [NCGC00250412-19]: the “excess over highest single agent” value was 48.7.

`Nc1nc(=O)n([C@H]2C[C@H](O)[C@@H](CO)O2)cc1F` + Cc1sc2c(c1C)C(c1ccc(Cl)cc1)=N[C@@H](CC(=O)OC(C)(C)C)c1nnc(C)n1-2 [NCGC00250412-19]: the “excess over highest single agent” value was -325.

Turning to `Cc1ccccc1-n1c(Cn2ncc3c(N)ncnc32)nc2cccc(C)c2c1=O` + Cc1sc2c(c1C)C(c1ccc(Cl)cc1)=N[C@@H](CC(=O)OC(C)(C)C)c1nnc(C)n1-2 [NCGC00250412-19], the “excess over highest single agent” value was -119.

On to `CC[C@H]1OC(=O)[C@H](C)[C@@H](O[C@H]2C[C@@](C)(OC)[C@@H](O)[C@H](C)O2)[C@H](C)[C@@H](O[C@@H]2O[C@H](C)C[C@H](N(C)C)[C@H]2O)[C@](C)(OC)C[C@@H](C)C(=O)[C@H](C)[C@@H](O)[C@]1(C)O` + Cc1sc2c(c1C)C(c1ccc(Cl)cc1)=N[C@@H](CC(=O)OC(C)(C)C)c1nnc(C)n1-2 [NCGC00250412-19], for which the “excess over highest single agent” value was -147.

For the compound `C/C(O)=C(\C#N)C(=O)Nc1cc(Br)ccc1Br` + Cc1sc2c(c1C)C(c1ccc(Cl)cc1)=N[C@@H](CC(=O)OC(C)(C)C)c1nnc(C)n1-2 [NCGC00250412-19], the “excess over highest single agent” value was -151.

Consider `O=C(Nc1nc2ccccc2n1CCN1CCOCC1)c1cccc([N+](=O)[O-])c1` + Cc1sc2c(c1C)C(c1ccc(Cl)cc1)=N[C@@H](CC(=O)OC(C)(C)C)c1nnc(C)n1-2 [NCGC00250412-19], for which the “excess over highest single agent” value stood at 35.6.

As to `CN(C)CC[C@H](CSc1ccccc1)Nc1ccc(S(=O)(=O)NC(=O)c2ccc(N3CCN(Cc4ccccc4-c4ccc(Cl)cc4)CC3)cc2)cc1[N+](=O)[O-]` + Cc1sc2c(c1C)C(c1ccc(Cl)cc1)=N[C@@H](CC(=O)OC(C)(C)C)c1nnc(C)n1-2 [NCGC00250412-19], the “excess over highest single agent” value was -309.

Take `COc1cc([C@@H]2c3cc4c(cc3[C@@H](O)[C@H]3COC(=O)[C@H]23)OCO4)cc(OC)c1O` + Cc1sc2c(c1C)C(c1ccc(Cl)cc1)=N[C@@H](CC(=O)OC(C)(C)C)c1nnc(C)n1-2 [NCGC00250412-19]: the “excess over highest single agent” value was -212.

Turning to `N#CC1(c2cccc(C(=O)Nc3cc(Oc4ccc5nc(NC(=O)C6CC6)sc5n4)ccc3F)c2Cl)CC1` + Cc1sc2c(c1C)C(c1ccc(Cl)cc1)=N[C@@H](CC(=O)OC(C)(C)C)c1nnc(C)n1-2 [NCGC00250412-19], the “excess over highest single agent” value was -196.

In the case of `C[C@H]1COC2=C1C(=O)C(=O)c1c2ccc2c1CCCC2(C)C` + Cc1sc2c(c1C)C(c1ccc(Cl)cc1)=N[C@@H](CC(=O)OC(C)(C)C)c1nnc(C)n1-2 [NCGC00250412-19], the “excess over highest single agent” value is -209.

In the case of `NC(=O)Cc1cccc(C(=O)c2ccccc2)c1N` + Cc1sc2c(c1C)C(c1ccc(Cl)cc1)=N[C@@H](CC(=O)OC(C)(C)C)c1nnc(C)n1-2 [NCGC00250412-19], the “excess over highest single agent” value was -95.9.

`Nc1ccccc1NC(=O)c1ccc(CNC(=O)OCc2cccnc2)cc1` + Cc1sc2c(c1C)C(c1ccc(Cl)cc1)=N[C@@H](CC(=O)OC(C)(C)C)c1nnc(C)n1-2 [NCGC00250412-19]: the “excess over highest single agent” value was -124.

`CCCCOc1c(C(=O)c2c(F)cc(C)cc2F)c[nH]c2nncc1-2` + Cc1sc2c(c1C)C(c1ccc(Cl)cc1)=N[C@@H](CC(=O)OC(C)(C)C)c1nnc(C)n1-2 [NCGC00250412-19]: the “excess over highest single agent” value is -375.
